According to paper PMC10163288:
Some of the results follow.

B1: il2ra_site2_2erj_sap_24_mot_720936397f2d31669eff21710c18a4fc_0001_000000071_0001_37_51_H_._HHH_b1_00159_0001_0000100007_0000001_0_0001 (protein)
chain: SSSSSDDLHRLYELAVRILHLISKGDPEEAEKLLEELRELAEEVDSENAKEITESLEKLLSSSSS
B2: il2ra_site2_3nfp_normal_mot_HHH_b2_07129_000000128_0001_19_36_H_._HHH_b1_01121_af2_0001_0000300014_0000001_0 (protein)
chain: SSSSSEEVEELLERIEELLQRNNREEARKLVQRVAQLAFELRDHELFARVADLRLAVEQLSSSSS
B3: il2ra_site2_3nfp_normal_mot_HHH_b1_04158_af2_000000151_0001_42_56_H_._HHH_b1_01821_0001_0000500022_0000001_0 (protein)
chain: SSSSDKAHRYLRAFLRLIELAIEAGDREAARRHLEAAKLLAEAKEDEEIEELLEELEELINSSSS
B4: il2ra_site1_2b5i_sap_9_mot_9b27c49f4244f023ba89377d59a42b61_0001_000000075_0001_18_32_H_._HHH_b1_06239_0002_0000300029_0000001_0_0001 (protein)
chain: SSSDDNELARFATEVVWRLRWHLGLSNEQAQELNKRASELVWRGVSPEEIEEILEELAERLSSSS
B5: il2ra_site1_1z92_normal_mot_HHH_b1_01765_000000215_0001_19_35_H_._HHH_b1_04234_0001_0000400037_0000001_0 (protein)
chain: SSSSSKAEERLEFAIRNLKLLLERGNEKAAEWAARLLLALARVVGDEEAKRYVEEVEQELSSSSS
B6: il2ra_site2_3nfp_sap_15_mot_HHH_b2_08110_af2_000000162_0001_23_39_H_._17723695ccae110160e5b234edaa95c1_0001_af2_0001_0000100014_0000001_0_0001 (protein)
chain: SSSSDVEEEVRRLLEEAEELRKQGNPEEVRRLVAEAAHLAFENNDHEAFALIADVFYKLAKSSSS
B7: il2ra_site1_3nfp_sap_19_mot_HHH_b1_01231_af2_000000170_0001_1_16_H_._HHH_b1_05450_af2_0001_0000100012_0000001_0_0001 (protein)
chain: SADEYMVELLKKDGFPPEKIVEQLVEAARRVYNIPPEEAEKWLKKRLEELGDPLAEVVEELAEEK
B8: il2ra_site2_3nfp_sap_19_mot_HHH_b1_04960_000000149_0001_23_39_H_._HHH_b2_01436_0001_0000600058_0000001_0_0001_af2pred_0001_1_af2pred_swapped (protein)
chain: SSSSSDEELRLIEKLLREAEEEGDEELIRHLAAALASLAFELNDEERLKEARRILAEIANSSSSS
B9: il2ra_site1_2b5i_sap_7_mot_HHH_b1_08075_000000186_0001_43_57_H_._HHH_b1_06101_0001_0000700022_0000001_0_0001_af2pred_dldesign_0_af2pred (protein)
chain: SSSSSRRETLLEVERLVKEADKLEDKEEARKVLERALELARAGRDPVAARIVEERLEEISSSSSS
B10: il2ra_site2_3nfp_sap_18_mot_HHH_b2_05281_000000198_0001_39_56_H_._738ccc93aada9afe30a0d8950425dc90_0001_1_0001_0000300030_0000001_0_0001_af2pred_0001_af2pred (protein)
chain: DARKRIRELAEELGIPPRDIMLIIALILLLEQKGFSPEEIEKILEERAKKRGDPALKRVLEELRK
B11: il2ra_site2_2erj_sap_16_mot_4b0744c440632e7b239d8b54ed7c44c2_0001_af2_000000182_0001_16_31_H_._HHH_b1_03906_0001_0000500049_0000001_0_0001 (protein)
chain: SSSSEEEELERLLEEIKELLEEGNLEEALRLLWEVMRLAFENNDWEVSRRVWRLWELLRELESSS
B12: il2ra_site2_3nfp_normal_mot_HHH_b1_03376_000000004_0001_41_55_H_._HHH_b1_07054_0002_0000100008_0000001_0_af2pred_0001_1_af2pred_swapped (protein)
chain: SSSSDVEERIEQLLEKAERILEEHKDPEEAHRIVAEAARLAWENNDQEAFSRVAELYLKIDSSSS
B13: il2ra_site2_2erj_sap_25_mot_66c2fca85847babee3b8944584cfd08f_0001_1_000000149_0001_16_30_H_._HHH_b1_00115_0001_0000300028_0000001_0_0001 (protein)
chain: SSSSNEELHELYKLAVELLRLTAEGDREEFEKLWEEAKELAERLDSENVEEILEFLRRRVSSSSS
B14: il2ra_site2_3nfp_sap_29_mot_HHH_b2_01508_000000034_0001_1_17_H_._HHH_b2_05744_0001_0000100007_0000001_0_0001 (protein)
chain: SSSSDERMLRLALEALEALARNGDDEMFEKAEEYLRAAIELYGDEEARELLEELVREFREKSSSS
B15: il2ra_site2_2erj_normal_mot_HHH_b1_05749_af2_000000086_0001_23_39_H_._HHH_b1_03988_af2_0001_0000100001_0000001_0 (protein)
chain: SSSSNEELRRLYELAVRILHLISEGDEERAQELIEELKELAERLDNLAVKELVEHLEELINSSSS
B16: il2ra_site2_2erj_sap_24_mot_ems_p1-14H-GABBL-16H-GABBL-15H_0014_0001_0001_0001_000000124_0001_40_55_H_._098064ffb003ae9d220488cec4d80c2b_0001_af2_0001_000030001 … (protein)
chain: SSSSDEEEERIEELAEEAERLDDLHRVYELLNEMTRIASRANNQELVELVARLLEEIAKKFSSSS
B17: il2ra_site1_3nfp_sap_15_mot_HHH_b1_05868_af2_000000129_0001_1_19_H_._HHH_b1_04163_af2_0001_0000300017_0000001_0_0001_af2pred_0001_af2pred (protein)
chain: SSSSSWREKAMEAILRAAELANDEELREELEKLLEKLREEGDPRALREAVKLLKEAAKRLSSSSS
B18: il2ra_site1_1z92_normal_mot_HHH_b1_00368_000000203_0001_23_39_H_._HHH_b1_01554_af2_0001_0000300020_0000001_0_af2pred_0001_af2pred_1 (protein)
chain: SSSSSDEKDAKMIVRLAVRAARLSEEQEEQLRELAEELVKRGYDFEEIARILDELALKLLSSSSS
B19: il2ra_site2_3nfp_sap_21_mot_HHH_b1_01767_000000280_0001_1_18_H_._HHH_b1_02336_0001_0000100003_0000001_1_0001_af2pred_0001_af2pred_1_swapped (protein)
chain: SSSSSEEEEEVERLLEKAKKIEDPEEAAEAVRKAATIAVEINNEELFMAAIRLLERLERGSSSSS

What follows are binders tested against il2ra, P01589 (assay: yeast display titration).

Binder | apparent Kd
B1 | inactive: no binding seen
B2 | inactive: no binding seen
B3 | inactive: no binding seen
B4 | inactive: > 420 nM
B5 | inactive: no binding seen
B6 | inactive: no binding seen
B7 | inactive: no binding seen
B8 | inactive: no binding seen
B9 | inactive: no binding seen
B10 | inactive: no binding seen
B11 | inactive: no binding seen
B12 | inactive: no binding seen
B13 | inactive: no binding seen
B14 | inactive: no binding seen
B15 | inactive: no binding seen
B16 | inactive: no binding seen
B17 | inactive: no binding seen
B18 | inactive: no binding seen
B19 | inactive: no binding seen

No new results follow: entries from further up.
Binder | apparent Kd
B14 | inactive: no binding seen
B15 | inactive: no binding seen
